{"source": "patent US20080200376A1", "about": "“Compositions and Methods For the Treatment Of Obesity and Sexual Dysfunction” (priority 2004, published 2008)", "key": {"[1]": {"test": "Body weight in ad lib fed ferrets, Compound A and Compound F (FIG. 4)", "assay_type": "in vivo, ferret", "details": "PO, Compound F 0.3 and 1 mg/kg, Compound A 60 mg/kg or the combinations, 24 hours post dose"}, "[2]": {"test": "Body weight in ad lib fed ferrets, Compound A and Compound B (FIG. 2)", "assay_type": "in vivo, ferret", "details": "oral, Compound B 10 mg/kg, Compound A 60 mg/kg or the combination, 24 hours post dose"}, "[3]": {"test": "Food intake in ad lib fed ferrets, Compound A and Compound B (FIG. 1)", "assay_type": "in vivo, ferret", "details": "oral, Compound B 10 mg/kg, Compound A 60 mg/kg or the combination, 1, 2, 4 and 24 hours after dosing", "description": "FIG. 1. […] All food intake data were analyzed by two-tailed T-TEST.\nFood intake (FI) was monitored at 1, 2, 4, and 24, hours after dosing. Body weight (BWT) was measured at the time of dosing and at 24 hours. Any incidence of emesis or abnormal behavior by subjects was recorded. Two studies were combined to generate the data."}, "[4]": {"details": "drug compared to placebo; cited from earlier work"}}, "note": "For some of these results: For at least one compound, name, drawing or mass did not settle the structure. Some of these results come from one statement about several compounds together. Some compounds share one range, which may span the group rather than tell each member.", "data": [{"smiles": "CC[C@H](NC(C)=O)c1cc(Cl)ccc1C1CCN(C(=O)[C@@H]2CN(C(C)(C)C)C[C@H]2c2ccc(F)cc2F)CC1", "note": "[Compound A]", "values": [{"measurement": "Body weight", "setting": "[1]", "result": "body weight decrease was observed"}, {"measurement": "Body weight", "setting": "[2]", "result": "body weight decrease was observed"}, {"measurement": "Food intake", "setting": "[3]", "result": "significant decrease in food intake (FI) at 1, 2, 4, and 24 hours post dose"}]}, {"smiles": "CCCCCCCCCCC[C@@H](C[C@@H]1OC(=O)[C@H]1CCCCCC)OC(=O)[C@H](CC(C)C)NC=O", "note": "[orlistat]", "values": [{"measurement": "weight loss", "setting": "[4]", "result": "5%-10%"}]}]}
